No constants are given. Whether binding was seen depends on the method and setting. Some binding calls cover weakened binding; strength is not graded here.
Legend:
[1] = biological target: ALK1-Fc (recombinant chimeric type I receptor) (UniProt P37023); experiment: ELISA; ALK1-Fc coated on MaxiSorp plates (1 ug/mL in PBS, overnight, 4 °C), blocked with 1% BSA; BMP9 added with sENG (control plate); bound BMP9 detected with BMP-9 DuoSet ELISA reagents; both purified
[2] = biological target: ActRIIA-Fc (recombinant chimeric type II receptor) (UniProt P27037); experiment: ELISA; ActRIIA-Fc coated on MaxiSorp plates (1 ug/mL in PBS, overnight, 4 °C), blocked with 1% BSA; BMP9 (15 ng/mL) added with increasing concentrations of sENG(M), sENG(D) or sENG-Fc; bound BMP9 detected with BMP-9 DuoSet ELISA reagents; both purified

Protein sequences, listed by entry. Tags and fused reporters are not part of them. Lines headed by an entry give the natural chain unless they say otherwise; changes in a name come on top. Residues count along the entry.
UniProt P37023, residues 22-118: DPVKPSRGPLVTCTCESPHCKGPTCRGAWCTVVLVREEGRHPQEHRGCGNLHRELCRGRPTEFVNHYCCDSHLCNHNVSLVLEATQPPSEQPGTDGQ
UniProt P27037: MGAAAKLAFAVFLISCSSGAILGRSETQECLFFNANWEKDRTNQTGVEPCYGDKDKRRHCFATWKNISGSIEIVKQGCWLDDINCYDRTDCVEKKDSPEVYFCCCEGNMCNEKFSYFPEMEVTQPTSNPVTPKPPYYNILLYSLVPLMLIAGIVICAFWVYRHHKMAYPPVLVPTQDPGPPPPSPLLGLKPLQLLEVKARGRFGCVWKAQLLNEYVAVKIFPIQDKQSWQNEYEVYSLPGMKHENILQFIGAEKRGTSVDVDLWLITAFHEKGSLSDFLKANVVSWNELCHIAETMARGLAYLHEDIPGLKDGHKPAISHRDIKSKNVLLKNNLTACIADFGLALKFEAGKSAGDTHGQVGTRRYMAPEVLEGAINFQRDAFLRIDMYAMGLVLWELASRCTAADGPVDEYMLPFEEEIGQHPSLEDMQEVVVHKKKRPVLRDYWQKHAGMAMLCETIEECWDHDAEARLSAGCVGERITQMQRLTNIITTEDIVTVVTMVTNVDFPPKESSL

B1: Bone morphogenetic protein 9 (BMP9) (ligand, human, UniProt Q9UK05 320-429, looked up)
chain: SAGAGSHCQKTSLRVNFEDIGWDSWIIAPKEYEAYECKGGCFFPLADDVTPTKHAIVQTLVHLKFPTKVGKACCVPTKLSPISVLYKDDMGVPTLKYHYEGMSVAECGCR
notes: BMP9 (GDF2), recombinant human protein from R&D Systems; source: bought: R&D Systems (Cat.# 3209-BP), recombinant human protein
- binding [1]: binds
- binding [2]: binds

Source: PMC10126157, “High concentrations of soluble endoglin can inhibit BMP9 signaling in non-endothelial cells” (Scientific Reports, 2023)
